# Source: patent EP4610271B1 (Success Bio-Tech Co., Ltd., priority 2023, dated 2026)
# HELM strings list residues between dots; [ac] is acetyl, [am] amide, other brackets name non-standard units.
# Experiment: general procedure: Fmoc solid-phase peptide synthesis; Rink Amide-AM resin; DIC/HOBT
# Details: whole synthesis, scale of the general procedure 2.10 g resin, optionally acetate or hydrochloride salt
substance,measurement,value
PEPTIDE1{[ac].P.R.V.D.V.R.V.R.V.R.V.D.P.[am]}$$$$V2.0,final purity (method not given),up to 97%
